No constants are given. Whether binding was seen depends on the method and setting. Some results given as binding are weak or reduced against the parent protein; the word gives no strength.
B1: KL001-27 (antibody, V domains shown)
VH: QVQLVESGAEVKKPGSSVKVSCKASGGTFSSYAISWVRQAPGQGLEWMGRIIPILGIANYAQKFQGRVTVTADKSTSTAYMELSSLRSEDTAVYYCARSGYGYAYGSFDYWGQGTLVTVSS
VL: QLVLTQPPSVSGAPGQTVTISCTGQTIGAGYDVHWYQQLPGAAPKLLIYGNLNRPSGVPDRFSGSKSGTSASLAITDLQAEDEADYYCQSYDSTDGVVFGGGTKLTVL
B2: KL001-03 (antibody, V domains shown)
VH: QVQLVESGAEVKKPGSSVKVSCKASGGTFSSYAISWVRQAPGQGLEWMGRIIPILGIANYAQKFQGRVTVTADKSTSTAYMELSSLRSEDTAVYYCARSGPGYAYGSFDYWGQGTLVTVSS
VL: QLVLTQPPSVSGAPGQTVTISCTGPTIGAGYDVHWYQQLPGAAPKLLIYGNLNRPSGVPDRFSGSKSGTSASLAITDLQAEDEADYYCQSYDSTQGVVFGGGTKLTVL
B3: KL001-05 (antibody, V domains shown)
VH: QVQLVESGAEVKKPGSSVKVSCKASGGTFSSYAISWVRQAPGQGLEWMGRIIPILGIANYAQKFQGRVTVTADKSTSTAYMELSSLRSEDTAVYYCARSGYGYAYGSFDMWGQGTLVTVSS
VL: QLVLTQPPSVSGAPGQTVTISCTGPTIGAGYDVHWYQQLPGAAPKLLIYGNLNRPSGVPDRFSGSKSGTSASLAITDLQAEDEADYYCQSYDSRLGVVFGGGTKLTVL
B4: KL001-13 (antibody, human IgG1, kappa, V domains shown)
VH: QVQLVESGAEVKKPGSSVKVSCKASGGTFSSYAISWVRQAPGQGLEWMGRIIPILGIANYAQKFQGRVTVTADKSTSTAYMELSSLRSEDTAVYYCARSGYGYAYGSFDYWGQGTLVTVSS
VL: QLVLTQPPSVSGAPGQTVTISCTGQTIGAGYDVHWYQQLPGAAPKLLIYGNLNRPSGVPDRFSGSKSGTSASLAITDLQAEDEADYYCQSYDSRLGVVFGGGTKLTVLR
notes: also called KL001-13 candidate antibody
B5: KL001-25 (antibody, V domains shown)
VH: QVQLVESGAEVKKPGSSVKVSCKASGGTFSSYAISWVRQAPGQGLEWMGRIIPILGIANYAQKFQGRVTVTADKSTSTAYMELSSLRSEDTAVYYCARSGYGYAYGSFDYWGQGTLVTVSS
VL: QLVLTQPPSVSGAPGQTVTISCTQPTIGAGYDVHWYQQLPGAAPKLLIYGNLNRPSGVPDRFSGSKSGTSASLAITDLQAEDEADYYCQSMDSTLGVVFGGGTKLTVL

Sequences of proteins named here, by UniProt entry; tags and fusion partners are left off. Residues count along the entry.
UniProt Q9NZQ7, residues 19-239: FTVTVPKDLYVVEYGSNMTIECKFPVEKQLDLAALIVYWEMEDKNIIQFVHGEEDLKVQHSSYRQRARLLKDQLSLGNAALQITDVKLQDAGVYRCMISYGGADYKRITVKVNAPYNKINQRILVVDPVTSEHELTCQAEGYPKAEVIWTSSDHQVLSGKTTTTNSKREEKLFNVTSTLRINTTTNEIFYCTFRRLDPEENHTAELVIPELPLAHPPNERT

The binders below were run against PD-L1-Fc (PD-L1 antigen protein, extracellular region Met1-Thr239 fused to human Fc) (human) (UniProt Q9NZQ7) (assay: competitive ELISA on a PD-L1-coated plate, about 4 more hours in a solution of PD-L1 antigen protein).

| Binder | binding |
| --- | --- |
| B1 | binds |
| B2 | binds |
| B3 | binds |
| B4 | binds |
| B5 | binds |
